Test [1] has as its target GFP-CRN83_152 (Phytophthora capsici) (UniProt P0CV73). The experiment in a line: co-IP.
Test [2] concerns the target GFP-Mp64 (Myzus persicae). In words: co-IP.
Test [3] addresses Myzus persicae effector Mp64, yeast two-hybrid bait (Myzus persicae). In words: two-hybrid.

No constants are given. Whether binding was seen depends on the method and setting. Binding can be weak; no strength is given. For part of these data: In cells and extracts the contact can be indirect. For part of these data: Where a sequence is shown, tags or fusion partners need not be part of it.

B1: AtSIZ1-cMyc(10x) (protein, UniProt Q680Q4 1-884)
chain: MDLEANCKEKLSYFRIKELKDVLTQLGLSKQGKKQELVDRILTLLSDEQAARLLSKKNTVAKEAVAKLVDDTYRKMQVSGASDLASKGQVSSDTSNLKVKGEPEDPFQPEIKVRCVCGNSLETDSMIQCEDPRCHVWQHVGCVILPDKPMDGNPPLPESFYCEICRLTRADPFWVTVAHPLSPVRLTATTIPNDGASTMQSVERTFQITRADKDLLAKPEYDVQAWCMLLNDKVLFRMQWPQYADLQVNGVPVRAINRPGGQLLGVNGRDDGPIITSCIRDGVNRISLSGGDVRIFCFGVRLVKRRTLQQVLNLIPEEGKGETFEDALARVRRCIGGGGGDDNADSDSDIEVVADFFGVNLRCPMSGSRIKVAGRFLPCVHMGCFDLDVFVELNQRSRKWQCPICLKNYSVEHVIVDPYFNRITSKMKHCDEEVTEIEVKPDGSWRVKFKRESERRELGELSQWHAPDGSLCPSAVDIKRKMEMLPVKQEGYSDGPAPLKLGIRKNRNGIWEVSKPNTNGLSSSNRQEKVGYQEKNIIPMSSSATGSGRDGDDASVNQDAIGTFDFVANGMELDSISMNVDSGYNFPDRNQSGEGGNNEVIVLSDSDDENDLVITPGPAYSGCQTDGGLTFPLNPPGIINSYNEDPHSIAGGSSGLGLFNDDDEFDTPLWSFPSETPEAPGFQLFRSDADVSGGLVGLHHHSPLNCSPEINGGYTMAPETSMASVPVVPGSTGRSEANDGLVDNPLAFGRDDPSLQIFLPTKPDASAQSGFKNQADMSNGLRSEDWISLRLGDSASGNHGDPATTNGINSSHQMSTREGSMDTTTETASLLLGMNDSRQDKAKKQRSDNPFSFPRQKRSNNEQDHQTRHRSLNKICIILCAGKN
As to B1, the results for the binding result in test [1] and in test [2] were “binds weakly” and “binds”, respectively.

B2: full-length AtSIZ1 (Arabidopsis thaliana SIZ1), yeast two-hybrid prey (protein, UniProt Q680Q4 1-884)
chain: B1 chain
Take B2: in test [3], the binding entry is listed as “binds”.

For the origin of these results see doi:10.1101/2020.06.18.159178.
